Reference: PMC3376112
These are yes or no findings as the source states them, for the method shown. In cells and extracts the contact can be indirect. Some results given as binding are weak or reduced against the parent protein; the word gives no strength. Where a sequence is shown, tags or fusion partners need not be part of it.

By UniProt entry, the sequences of proteins in these tests, tags left out.
UniProt P42582: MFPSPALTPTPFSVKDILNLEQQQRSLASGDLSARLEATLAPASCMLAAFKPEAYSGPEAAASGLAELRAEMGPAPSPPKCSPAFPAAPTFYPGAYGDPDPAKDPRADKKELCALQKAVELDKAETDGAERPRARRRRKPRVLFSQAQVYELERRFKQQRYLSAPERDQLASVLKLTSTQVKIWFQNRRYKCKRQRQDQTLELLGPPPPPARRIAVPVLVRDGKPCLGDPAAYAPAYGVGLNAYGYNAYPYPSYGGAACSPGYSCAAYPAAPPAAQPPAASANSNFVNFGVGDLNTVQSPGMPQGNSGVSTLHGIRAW

Molecular target: T1, recombinant human O-GlcNAc transferase (OGT-flag) (human) (UniProt O15294)
T1 sequence: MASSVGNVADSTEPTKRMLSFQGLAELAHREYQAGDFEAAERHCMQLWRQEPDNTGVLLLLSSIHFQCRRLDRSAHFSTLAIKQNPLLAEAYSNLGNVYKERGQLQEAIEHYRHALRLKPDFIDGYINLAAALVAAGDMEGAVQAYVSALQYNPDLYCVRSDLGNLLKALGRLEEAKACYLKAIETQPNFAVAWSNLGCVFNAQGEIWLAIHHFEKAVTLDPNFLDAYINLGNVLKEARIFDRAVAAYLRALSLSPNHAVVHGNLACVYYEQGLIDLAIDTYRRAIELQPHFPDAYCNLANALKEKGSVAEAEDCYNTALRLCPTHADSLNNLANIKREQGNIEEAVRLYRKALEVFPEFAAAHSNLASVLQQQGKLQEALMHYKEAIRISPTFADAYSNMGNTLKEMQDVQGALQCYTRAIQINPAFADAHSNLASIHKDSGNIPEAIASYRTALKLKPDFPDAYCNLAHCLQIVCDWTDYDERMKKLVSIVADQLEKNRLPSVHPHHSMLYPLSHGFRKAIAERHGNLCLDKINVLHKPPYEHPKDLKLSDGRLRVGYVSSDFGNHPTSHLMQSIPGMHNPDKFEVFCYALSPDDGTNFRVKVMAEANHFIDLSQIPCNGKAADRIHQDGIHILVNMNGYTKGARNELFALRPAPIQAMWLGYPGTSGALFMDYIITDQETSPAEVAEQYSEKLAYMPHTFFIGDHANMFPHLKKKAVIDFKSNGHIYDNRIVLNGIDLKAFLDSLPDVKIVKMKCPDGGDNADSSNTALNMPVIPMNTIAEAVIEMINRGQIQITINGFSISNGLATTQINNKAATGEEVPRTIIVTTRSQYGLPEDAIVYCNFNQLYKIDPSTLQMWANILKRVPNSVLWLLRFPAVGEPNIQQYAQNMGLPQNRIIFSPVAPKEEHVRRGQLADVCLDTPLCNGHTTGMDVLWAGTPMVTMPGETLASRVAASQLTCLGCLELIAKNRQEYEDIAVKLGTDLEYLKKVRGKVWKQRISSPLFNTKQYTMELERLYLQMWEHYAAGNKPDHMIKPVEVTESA
Assay: co-IP; lysates of HEK293 cells co-transfected with myc-Nkx2.5 and OGT-flag; immunoprecipitation with anti-Nkx2.5, anti-flag or anti-OGT antibodies at 4°C overnight, protein A/G sepharose beads; immunoblotting for myc, flag and OGT

binding: binds
Substance: recombinant mouse Nkx2.5 (myc-Nkx2.5) (from UniProt P42582 1-318)
